Consider 5 molecules from patent US20110293593A1, “SIVA 2 STABILIZATION” (YEDA RESEARCH AND DEVELOPMENT CO., LTD., priority 2008, published 2011).

Protein sequences, listed by entry. Tags and fused reporters are not part of them.
UniProt Q99558: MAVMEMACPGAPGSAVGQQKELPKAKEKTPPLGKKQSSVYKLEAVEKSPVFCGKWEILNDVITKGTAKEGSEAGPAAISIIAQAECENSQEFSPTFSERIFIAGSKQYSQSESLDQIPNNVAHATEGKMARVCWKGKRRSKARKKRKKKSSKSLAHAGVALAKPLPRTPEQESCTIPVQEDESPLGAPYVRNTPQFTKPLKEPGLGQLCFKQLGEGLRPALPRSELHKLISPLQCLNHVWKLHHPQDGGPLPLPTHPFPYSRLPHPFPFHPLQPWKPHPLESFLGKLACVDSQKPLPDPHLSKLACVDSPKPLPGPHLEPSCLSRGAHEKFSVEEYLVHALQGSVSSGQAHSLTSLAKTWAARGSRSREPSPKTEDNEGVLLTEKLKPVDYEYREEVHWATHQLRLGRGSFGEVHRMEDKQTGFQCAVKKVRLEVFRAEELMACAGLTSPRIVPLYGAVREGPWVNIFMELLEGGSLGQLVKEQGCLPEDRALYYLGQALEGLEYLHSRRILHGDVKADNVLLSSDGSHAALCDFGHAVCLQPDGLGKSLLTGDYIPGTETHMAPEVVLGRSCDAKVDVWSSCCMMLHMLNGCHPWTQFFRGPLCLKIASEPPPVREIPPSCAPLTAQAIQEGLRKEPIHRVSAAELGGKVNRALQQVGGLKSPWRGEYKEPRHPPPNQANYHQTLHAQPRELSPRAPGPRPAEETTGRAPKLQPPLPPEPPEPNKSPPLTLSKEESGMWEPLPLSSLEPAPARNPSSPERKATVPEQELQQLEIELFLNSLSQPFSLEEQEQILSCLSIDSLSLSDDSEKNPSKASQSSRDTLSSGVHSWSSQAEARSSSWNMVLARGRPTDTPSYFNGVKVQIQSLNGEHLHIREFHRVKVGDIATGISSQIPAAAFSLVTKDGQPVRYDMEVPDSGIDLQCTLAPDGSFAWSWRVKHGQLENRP

One test addresses T1, FLAG-TRAF2 (C34A) (UniProt Q12933).
T1 sequence (looked up): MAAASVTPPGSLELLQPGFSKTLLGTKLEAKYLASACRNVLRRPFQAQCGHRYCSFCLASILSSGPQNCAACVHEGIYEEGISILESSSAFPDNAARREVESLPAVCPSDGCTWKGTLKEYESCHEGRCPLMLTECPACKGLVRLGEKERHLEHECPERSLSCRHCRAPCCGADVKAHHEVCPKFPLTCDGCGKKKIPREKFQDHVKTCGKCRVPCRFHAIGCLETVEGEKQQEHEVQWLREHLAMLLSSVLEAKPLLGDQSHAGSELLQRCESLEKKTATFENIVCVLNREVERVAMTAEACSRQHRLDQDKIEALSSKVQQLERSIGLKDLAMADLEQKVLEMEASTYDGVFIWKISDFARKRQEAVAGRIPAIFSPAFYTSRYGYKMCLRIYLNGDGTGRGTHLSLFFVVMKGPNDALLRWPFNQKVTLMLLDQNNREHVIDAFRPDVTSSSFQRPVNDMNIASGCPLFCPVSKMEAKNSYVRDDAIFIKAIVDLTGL
Nature of the test: precipitation of FLAG-TRAF2 (C34A) from transfected HEK293T cells, western blot (FIG. 9B).

A further test deals with myc-NIK (UniProt Q99558). Nature of the test: immunoprecipitation of SIVA2 from co-transfected HEK-293T cells, western blot for NIK (FIG. 4C).

These are yes or no findings as the source states them, for the method shown. Some results given as binding are weak or reduced against the parent protein; the word gives no strength. Sequences can lack the tags named with a protein.

B1: HIS-SIVA2 (other, not shown: small tags and cut ends)
chain: MPKRSCPFADVAPLQLKVRVSQRELSRGVCAERYSQEVFDPSGVASIACSSCVRAVDGKAVCGQCERALCGQCVRTCWGCGSVACTLCGLVDCSDMYEKVLCTSCAMFET
notes: Expressed by transfection in HEK293T cells
In the case of B1, in the test with FLAG-TRAF2 (C34A), the binding entry was “binds”.

B2: FLAG-SIVA2 6SA (protein, not shown: small tags and cut ends)
chain: MPKRACPFADVAPLQLKVRVAQRELARGVCAERYAQEVFDPSGVASIACAACVRAVDGKAVCGQCERALCGQCVRTCWGCGSVACTLCGLVDCSDMYEKVLCTSCAMFET
Consider B2, for which, in the test with myc-NIK, the binding result is on record as “binds”.

B3: FLAG-SIVA2 3SA (protein, not shown: small tags and cut ends)
chain: MPKRACPFADVAPLQLKVRVSQRELSRGVCAERYSQEVFDPSGVASIACAACVRAVDGKAVCGQCERALCGQCVRTCWGCGSVACTLCGLVDCSDMYEKVLCTSCAMFET
In the case of B3, the binding result in the test with myc-NIK is listed as “binds”.

B4: HIS-SIVA2 (C73A) (protein, not shown: small tags and cut ends)
chain: MPKRSCPFADVAPLQLKVRVSQRELSRGVCAERYSQEVFDPSGVASIACSSCVRAVDGKAVCGQCERALCGQAVRTCWGCGSVACTLCGLVDCSDMYEKVLCTSCAMFET
For the molecule B4, in the test with FLAG-TRAF2 (C34A), the binding result is listed as “binds”.

B5: HIS-SIVA1 (protein, not shown: small tags and cut ends)
chain: MPKRSCPFADVAPLQLKVRVSQRELSRGVCAERYSQEVFEKTKRLLFLGAQAYLDHVWDEGCAVVHLPESPKPGPTGAPRAARGQMLIGPDGRLIRSLGQASEADPSGVASIACSSCVRAVDGKAVCGQCERALCGQCVRTCWGCGSVACTLCGLVDCSDMYEKVLCTSCAMFET
Regarding B5, in the test with FLAG-TRAF2 (C34A), the binding entry is listed as “binds”.
